According to patent US20130337050A1:
No constants are given. Whether binding was seen depends on the method and setting. Some entries that bind do so weakly or less than the wild type.

Columns and labels:
[1] = molecular target: GST-mTfR1 (GST-fused recombinant protein of the partial sequence 321-329 of mouse transferrin receptor 1) (mouse); test: Glutathione-Sepharose pull-down, western blotting for poliovirus (mixture 4-1)
[2] = molecular target: GST-mTfR1 (GST-fused recombinant protein of the partial sequence 321-329 of mouse transferrin receptor 1) (mouse); test: Glutathione-Sepharose pull-down, western blotting for poliovirus (mixture 4-7)
[3] = molecular target: GST-hTfR2 (GST-fused recombinant protein of the partial sequence 341-349 of human transferrin receptor 2) (human); test: Glutathione-Sepharose pull-down, western blotting for poliovirus (mixture 4-8)

Measured: binding

live poliovirus (Mahoney strain) (from UniProt P03300 580-881; P03300 70-341; P03300 342-579)
binds: all assays above
